For one molecule, binding results are on record in paper PMC8910471, “The Finely Coordinated Action of SSB and NurA/HerA Complex Strictly Regulates the DNA End Resection Process in Saccharolobus solfataricus”.

This assay has as its target T1, NurA from Saccharolobus solfataricus, labeled with fluorescein 5(6)-isothiocyanate (S. solfataricus) (UniProt Q97WH1).
T1 sequence (chain, labeled with fluorescein 5(6)-isothiocyanate (site not stated)): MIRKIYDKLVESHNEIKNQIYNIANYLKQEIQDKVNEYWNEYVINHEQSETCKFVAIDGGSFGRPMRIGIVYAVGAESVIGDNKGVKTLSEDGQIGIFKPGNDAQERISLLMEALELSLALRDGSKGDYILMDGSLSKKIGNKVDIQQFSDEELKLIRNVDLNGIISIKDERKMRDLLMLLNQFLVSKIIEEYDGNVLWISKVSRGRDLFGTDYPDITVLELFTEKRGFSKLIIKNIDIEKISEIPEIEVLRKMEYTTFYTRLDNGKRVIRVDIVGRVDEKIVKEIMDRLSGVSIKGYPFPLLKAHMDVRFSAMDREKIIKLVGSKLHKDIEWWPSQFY
The assay is described as follows: FRET or BRET; steady-state fluorescence of purified labeled proteins in solution: NurA labeled with fluorescein 5(6)-isothiocyanate (donor) with increasing concentrations of the partner labeled with rhodamine B (acceptor); excitation 495 nm, emission 500-600 nm, read at 570 nm; buffer 1 mM sodium phosphate pH 7.0 or 10 mM sodium phosphate pH 8.0 (methods); both purified. (In general: In BRET a luciferase serves as donor, and the signal depends on an acceptor being close.)

These are yes or no findings as the source states them, for the method shown.

B1: single-strand binding protein SSB from Saccharolobus solfataricus, labeled with rhodamine B (protein, UniProt Q97W73 1-148)
chain: MEEKVGNLKPNMESVNVTVRVLEASEARQIQTKNGVRTISEAIVGDETGRVKLTLWGKHAGSIKEGQVVKIENAWTTAFKGQVQLNAGSKTKIAEASEDGFPESSQIPENTPTAPQQMRGGGRGFRGGGRRYGRRGGRRQENEEGEEE
modifications: labeled with rhodamine B (site not stated)
Regarding B1, the binding result is “no binding”.
